Values of other authors, collected in patent US20210154372A1, “MEDICAL DEVICE WITH DRUG-ELUTING COATING AND INTERMEDIATE LAYER” (C.R. Bard, Inc., priority 2017, published 2021).
Some of these results come from one statement about several compounds together.

Details: definition of low-solubility amino acid; 4% (40 mg/ml); cited from earlier work

Row | Structure (SMILES) | solubility in unbuffered water
1 | N[C@@H](Cc1ccccc1)C(=O)O [phenylalanine] | less than 4%
2 | CC(C)C[C@H](N)C(=O)O [leucine] | less than 4%
3 | N[C@@H](Cc1c[nH]c2ccccc12)C(=O)O [tryptophan] | less than 4%
